{"source": "PubChem BioAssay AID1159578, Peter MacCallum Cancer Centre | 2015", "screen": "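siRNA pools altering how lymphatic endothelial cells close a scratch wound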 (primary screen)", "cells": "human lymphatic endothelial cells", "knock-down reagent": "siRNA pool against human genes, 40 nM", "time to read-out": "48 h after transfection", "detection": "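Cells stained with dye and imaged after a scratch; covered wound area and nuclei counted, duplicates averaged, migration set against mock wells and turned into a robust z-score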", "direction": "migration robust z-score: higher = faster migration into the scratch; nuclei per well: higher = more cells in the well", "hit rule": "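Migration changed when robust z exceeds 2 or falls below -2 and mean nuclei number is at least 3300; otherwise not called changed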", "calls": "active = migration changed; inactive = no migration change, or too few cells", "note": "In all, the deposit lists about 18,000 reagents; shown is a random part of them. In the full data, about 1,030 (5.7%) are marked active. 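Inactive calls also include pools with fewer than 3300 nuclei, whose migration was not assessed.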 Raw values vary from plate to plate and are shown uncorrected. Not all columns of the deposit are shown. Reagent sequences are not shown."}
{"gene knocked down": "MTSS1 (MTSS I-BAR domain containing 1)", "migration robust z-score": -1.3, "migration class with cell-count check": "migration z between -2 and 2; enough cells", "nuclei per well, duplicate mean": 4880, "activity call": "inactive"}
{"gene knocked down": "DUSP1 (dual specificity phosphatase 1)", "migration robust z-score": 0.65, "migration class with cell-count check": "migration z between -2 and 2; enough cells", "nuclei per well, duplicate mean": 4848, "activity call": "inactive"}
{"gene knocked down": "CCL22 (C-C motif chemokine ligand 22)", "migration robust z-score": 0.58, "migration class with cell-count check": "migration z between -2 and 2; enough cells", "nuclei per well, duplicate mean": 6346, "activity call": "inactive"}
{"gene knocked down": "HCAR2 (hydroxycarboxylic acid receptor 2)", "migration robust z-score": 0.68, "migration class with cell-count check": "migration z between -2 and 2; enough cells", "nuclei per well, duplicate mean": 4942, "activity call": "inactive"}
{"gene knocked down": "KRTAP5-7 (keratin associated protein 5-7)", "migration robust z-score": 1.44, "migration class with cell-count check": "migration z between -2 and 2; enough cells", "nuclei per well, duplicate mean": 5646, "activity call": "inactive"}
{"gene knocked down": "CDX1 (caudal type homeobox 1)", "migration robust z-score": -0.14, "migration class with cell-count check": "migration z between -2 and 2; enough cells", "nuclei per well, duplicate mean": 7970, "activity call": "inactive"}
{"gene knocked down": "TAGLN3 (transgelin 3)", "migration robust z-score": 0.01, "migration class with cell-count check": "migration z between -2 and 2; enough cells", "nuclei per well, duplicate mean": 4344, "activity call": "inactive"}
{"gene knocked down": "TP53TG5 (TP53 target 5)", "migration robust z-score": -0.05, "migration class with cell-count check": "migration z between -2 and 2; enough cells", "nuclei per well, duplicate mean": 6060, "activity call": "inactive"}
{"gene knocked down": "RRP15 (ribosomal RNA processing 15 homolog)", "migration robust z-score": -0.3, "migration class with cell-count check": "migration z between -2 and 2; enough cells", "nuclei per well, duplicate mean": 6032, "activity call": "inactive"}
{"gene knocked down": "ITGA3 (integrin subunit alpha 3)", "migration robust z-score": -0.8, "migration class with cell-count check": "migration z between -2 and 2; enough cells", "nuclei per well, duplicate mean": 4509, "activity call": "inactive"}
{"gene knocked down": "GPR26 (G protein-coupled receptor 26)", "migration robust z-score": 0, "migration class with cell-count check": "migration z between -2 and 2; enough cells", "nuclei per well, duplicate mean": 5253, "activity call": "inactive"}
{"gene knocked down": "ZNF672 (zinc finger protein 672)", "migration robust z-score": -3.44, "migration class with cell-count check": "migration z below -2; enough cells", "nuclei per well, duplicate mean": 3470, "activity call": "active"}
{"gene knocked down": "ZBTB4 (zinc finger and BTB domain containing 4)", "migration robust z-score": 0.24, "migration class with cell-count check": "migration z between -2 and 2; enough cells", "nuclei per well, duplicate mean": 5012, "activity call": "inactive"}
{"gene knocked down": "ZFP2 (ZFP2 zinc finger protein)", "migration robust z-score": 0.04, "migration class with cell-count check": "migration z between -2 and 2; enough cells", "nuclei per well, duplicate mean": 6906, "activity call": "inactive"}
{"gene knocked down": "IL36R (interleukin 36 receptor)", "migration robust z-score": 0.65, "migration class with cell-count check": "migration z between -2 and 2; enough cells", "nuclei per well, duplicate mean": 5822, "activity call": "inactive"}
{"gene knocked down": "CD86 (CD86 molecule)", "migration robust z-score": 1.92, "migration class with cell-count check": "migration z between -2 and 2; enough cells", "nuclei per well, duplicate mean": 5196, "activity call": "inactive"}
{"gene knocked down": "PGAP4 (post-GPI attachment to proteins GalNAc transferase 4)", "migration robust z-score": -1.27, "migration class with cell-count check": "under 3300 nuclei; migration not judged", "nuclei per well, duplicate mean": 3294, "activity call": "inactive"}
{"gene knocked down": "CABP7 (calcium binding protein 7)", "migration robust z-score": -0.29, "migration class with cell-count check": "migration z between -2 and 2; enough cells", "nuclei per well, duplicate mean": 5632, "activity call": "inactive"}
{"gene knocked down": "NOP10 (NOP10 ribonucleoprotein)", "migration robust z-score": 0.38, "migration class with cell-count check": "migration z between -2 and 2; enough cells", "nuclei per well, duplicate mean": 4156, "activity call": "inactive"}
{"gene knocked down": "ACBD7 (acyl-CoA binding domain containing 7)", "migration robust z-score": -0.5, "migration class with cell-count check": "migration z between -2 and 2; enough cells", "nuclei per well, duplicate mean": 5846, "activity call": "inactive"}
{"gene knocked down": "NOSTRIN (nitric oxide synthase trafficking)", "migration robust z-score": -1.52, "migration class with cell-count check": "migration z between -2 and 2; enough cells", "nuclei per well, duplicate mean": 5932, "activity call": "inactive"}

2 entries from above, showing only “migration class with cell-count check”.
MTSS1 (MTSS I-BAR domain containing 1) = migration z between -2 and 2; enough cells
DUSP1 (dual specificity phosphatase 1) = migration z between -2 and 2; enough cells
